From article PMC9938590
Results are given in words; binding and its absence hold for the method and conditions named. In cells and extracts the contact can be indirect. Here binding means that the protein was enriched with, or labelled near, the bait; the list need not be complete. A no says only that the protein was not detected with the bait. For some assays here: Where a sequence is shown, tags or fusion partners need not be part of it.

T1: TurboID-tagged KDM5 (Lysine demethylase 5), N-terminal (NT-KDM5) or C-terminal (CT-KDM5) TurboID fusion (Drosophila melanogaster), Q9VMJ7
T1 chain: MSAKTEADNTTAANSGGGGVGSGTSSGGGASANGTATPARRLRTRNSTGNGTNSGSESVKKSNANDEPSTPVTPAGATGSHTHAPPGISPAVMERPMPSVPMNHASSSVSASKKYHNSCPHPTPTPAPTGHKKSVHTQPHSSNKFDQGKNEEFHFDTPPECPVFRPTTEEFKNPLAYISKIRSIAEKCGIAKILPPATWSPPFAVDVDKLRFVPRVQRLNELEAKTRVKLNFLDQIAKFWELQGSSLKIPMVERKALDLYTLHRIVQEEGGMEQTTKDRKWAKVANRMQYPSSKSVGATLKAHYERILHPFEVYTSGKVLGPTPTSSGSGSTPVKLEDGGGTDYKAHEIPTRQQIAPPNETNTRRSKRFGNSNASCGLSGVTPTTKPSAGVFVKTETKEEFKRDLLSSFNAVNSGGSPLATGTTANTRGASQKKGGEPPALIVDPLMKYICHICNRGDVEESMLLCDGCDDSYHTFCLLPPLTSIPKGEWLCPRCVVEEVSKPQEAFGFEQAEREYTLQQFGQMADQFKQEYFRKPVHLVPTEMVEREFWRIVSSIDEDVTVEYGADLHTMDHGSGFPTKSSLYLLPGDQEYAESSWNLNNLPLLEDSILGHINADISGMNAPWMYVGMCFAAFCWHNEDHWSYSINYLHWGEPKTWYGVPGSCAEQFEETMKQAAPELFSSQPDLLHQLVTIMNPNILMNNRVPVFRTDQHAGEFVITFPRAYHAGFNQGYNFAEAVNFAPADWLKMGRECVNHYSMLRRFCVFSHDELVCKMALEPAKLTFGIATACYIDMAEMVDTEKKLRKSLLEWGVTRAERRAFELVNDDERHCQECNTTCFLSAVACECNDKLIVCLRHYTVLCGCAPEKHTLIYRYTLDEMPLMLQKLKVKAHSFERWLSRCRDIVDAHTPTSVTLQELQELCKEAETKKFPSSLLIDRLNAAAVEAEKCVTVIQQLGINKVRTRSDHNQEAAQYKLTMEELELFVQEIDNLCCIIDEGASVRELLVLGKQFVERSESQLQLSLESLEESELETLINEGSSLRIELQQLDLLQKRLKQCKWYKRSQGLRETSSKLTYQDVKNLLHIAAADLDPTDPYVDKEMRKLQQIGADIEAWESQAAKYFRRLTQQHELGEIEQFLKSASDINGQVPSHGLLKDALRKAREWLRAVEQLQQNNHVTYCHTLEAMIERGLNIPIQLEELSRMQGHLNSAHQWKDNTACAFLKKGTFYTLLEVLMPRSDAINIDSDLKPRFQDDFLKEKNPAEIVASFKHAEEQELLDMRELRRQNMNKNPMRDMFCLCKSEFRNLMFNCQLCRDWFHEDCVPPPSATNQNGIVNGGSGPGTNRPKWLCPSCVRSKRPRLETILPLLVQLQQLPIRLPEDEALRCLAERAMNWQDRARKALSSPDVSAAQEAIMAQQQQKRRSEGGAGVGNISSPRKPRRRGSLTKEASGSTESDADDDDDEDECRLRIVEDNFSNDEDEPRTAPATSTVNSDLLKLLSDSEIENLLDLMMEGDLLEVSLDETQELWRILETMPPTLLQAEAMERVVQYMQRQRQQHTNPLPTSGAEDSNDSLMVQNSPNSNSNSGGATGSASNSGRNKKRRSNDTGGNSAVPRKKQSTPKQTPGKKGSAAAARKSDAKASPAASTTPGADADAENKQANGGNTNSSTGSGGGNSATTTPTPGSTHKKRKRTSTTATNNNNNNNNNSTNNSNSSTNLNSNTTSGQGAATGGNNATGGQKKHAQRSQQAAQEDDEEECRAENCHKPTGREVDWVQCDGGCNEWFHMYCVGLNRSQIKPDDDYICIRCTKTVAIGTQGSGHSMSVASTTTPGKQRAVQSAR


Assays:
[1] = molecular target: T1, TurboID-tagged KDM5 (Lysine demethylase …); assay: proximity labelling; TurboID fused to the N- or C-terminus of KDM5, expressed with Ubi-Gal4 in kdm5^140 null flies; adult heads lysed in RIPA, biotinylated proteins recovered on streptavidin magnetic beads, on-bead trypsin digestion, LC-MS/MS; enrichment over control (kdm5^140;gkdm5:HA) in experiments 1 and 2 and over dCas9:TurboID in experiment 2; nuclear proteins filtered at p < 0.1 across six datasets (high …); details: remark: other sources report otherwise
[2] = molecular target: TurboID-tagged KDM5 (Lysine demethylase 5), N-terminal (NT-KDM5) or C-terminal (CT-KDM5) TurboID fusion (Drosophila melanogaster) (UniProt Q9VMJ7); assay: proximity labelling; TurboID fused to the N- or C-terminus of KDM5, expressed with Ubi-Gal4 in kdm5^140 null flies; adult heads lysed in RIPA, biotinylated proteins recovered on streptavidin magnetic beads, on-bead trypsin digestion, LC-MS/MS; enrichment over control (kdm5^140;gkdm5:HA) in experiments 1 and 2 and over dCas9:TurboID in experiment 2; nuclear proteins filtered at p < 0.1 across six datasets (high confidence interactors)

binding [1] | binding [2] | Binder
no binding |  | transcription factor Foxo, Q95V55 1-613 (protein) MMDGYAQEWPRLTHTDNGLAMDQLGGDLPLDVGFEPQTRARSNTWPCPRPENFVEPTDELDSTKASNQQLAPGDSQQAIQNANAAKKNSSRRNAWGNLSYADLITHAIGSATDKRLTLSQIYEWMVQNVPYFKDKGDSNSSAGWKNSIRHNLSLHNRFMRVQNEGTGKSSWWMLNPEAKPGKSVRRRAASMETSRYEKRRGRAKKRVEALRQAGVVGLNDATPSPSSSVSEGLDHFPESPLHSGGGFQLSPDFRQRASSNASSCGRLSPIRAQDLEPDWGFPVDYQNTTMTQAHAQALEELTGTMADELTLCNQQQQGFSAASGLPSQPPPPPYQPPQHQQAQQQQQQQSPYALNGPASGYNTLQPQSQCLLHRSLNCSCMHNARDGLSPNSVTTTMSPAYPNSEPSSDSLNTYSNVVLDGPADTAALMVQQQQQQQQQQQLSASLEGQCLEVLNNEAQPIDEFNLENFPVGNLECNVEELLQQEMSYGGLLDINIPLATVNTNLVNSSSGPLSISNISNLSNISSNSGSSLSLNQLQAQLQQQQQQQQAQQQQQAQQQQQQHQQHQQQLLLNNNNNSSSSLELATQTATTNLNARVQYSQPSVVTSPPSWVH
 | no binding | Retinoblastoma protein (RBF in Drosophila) (protein, UniProt Q24472 1-845) MSEPDPQELGAEVVSGLVATSDDRLEMINAEYTNLCRDLNMDRQTELQGYETYLEVSQRCSMEGTASHWMCCAIYTACRRTSTPTVTGQNAVVKGNCVSLNNLLRCCKMSIYEFKTKIKQWCDMANLPQEFVNEIEDLDRKFSITFMLHKRFRIIMDMIFSCPPNEKKHSKYISLHGNHAHGKCSYIKLDDICWRLFLCAKNQKPSNTVDLVTSYNLMICCIDLIYNNVLAEKRTDLINPKFEGLPSNWTELDFRHNPHCILSNFCDMTEEAKAMKATTFRQIMSSFFQASTIYGNKDTMLGLLANENFERNLKSLNISYEQYVLSVGEFDERILSAYDAGEHTALNDQSLRPPVTPLTRKQDLPAQPAMAGDKFEPVRNATNNVKQLSAFGRITEPTDFVKQAGEEVIAKLLSIIEEIEQKFLAKYPSTEAKSRFQLAKSFFFYLLDQILQAEIRNKPDIDLKRLLVQKVSLVIFNITLMACCVELVLEAYKTELKFPWVLDCFSISAFEFQKIIEIVVRHGSHEGCLNRSLIKHLNSIEETCLERLAWARNSTVWEMIASAQLPLPTWLMVNLDRAAGPLQIFLRKVYLLGWLRIQKLCSELSLCEKTPESIWHIFEHSITHETELMKDRHLDQNIMCAIYIYIRVKRMEDPKFSDIMRAYRNQPQAVNSVYREVFIDINEDGEPKVKDIIHFYNHTYVPLMRQFVIDYLNVTPDVSGRASDLQLSPHPKERAAQPKKVTQSHSLFVSQMSKNEIQQSPNQMVYSFCRSPAKDLQAMNEKVRGGKRMLSFGDEPGLGTMAETKRSKISQVKAVMDDPELQSAEQQTAVTTEGCVGGEGGEHET
